In assay [1] the target is TAP-tagged Lid1 (Apc4), subunit of the APC/C (S. pombe) (UniProt O42839). Nature of the assay: co-IP; Apc4-TAP pulled down with IgG Dynabeads from extracts of cdc25-22 cells released from G2 into mitosis at 25°C, carbendazim added after 20 min, time points every 15 min; blots for Mad3p (anti-GFP) and Mad2p; lysis buffer 50 mM HEPES pH 7.5, 75 mM KCl, 0.1% TritonX-100; strains wild type, mad3-KEN1, mad3-KEN2, mad3-C9A, mad2-S92A, mad3-C9A mad2-S92A.

Protein sequences, listed by entry. Tags and fused reporters are not part of them. Lines headed by an entry give the natural chain unless they say otherwise; changes in a name come on top.
UniProt O42839: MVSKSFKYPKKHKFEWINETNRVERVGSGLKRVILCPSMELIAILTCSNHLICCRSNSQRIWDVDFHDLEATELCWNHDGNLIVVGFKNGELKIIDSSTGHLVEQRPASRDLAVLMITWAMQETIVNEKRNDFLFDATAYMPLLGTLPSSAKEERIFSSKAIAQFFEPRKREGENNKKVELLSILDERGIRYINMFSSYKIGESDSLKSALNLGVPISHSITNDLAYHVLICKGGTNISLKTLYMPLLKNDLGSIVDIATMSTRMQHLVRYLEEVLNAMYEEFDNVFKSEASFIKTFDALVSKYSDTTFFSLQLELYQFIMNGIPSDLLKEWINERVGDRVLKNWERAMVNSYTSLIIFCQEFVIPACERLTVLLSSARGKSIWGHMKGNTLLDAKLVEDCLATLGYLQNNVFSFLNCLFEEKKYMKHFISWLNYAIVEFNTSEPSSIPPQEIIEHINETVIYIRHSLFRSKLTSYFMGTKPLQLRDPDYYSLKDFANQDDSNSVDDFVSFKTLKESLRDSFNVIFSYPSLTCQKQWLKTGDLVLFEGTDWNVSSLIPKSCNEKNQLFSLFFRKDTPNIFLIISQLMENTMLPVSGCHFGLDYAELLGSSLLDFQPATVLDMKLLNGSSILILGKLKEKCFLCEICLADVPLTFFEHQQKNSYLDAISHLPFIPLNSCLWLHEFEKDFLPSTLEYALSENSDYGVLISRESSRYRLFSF
UniProt P78972: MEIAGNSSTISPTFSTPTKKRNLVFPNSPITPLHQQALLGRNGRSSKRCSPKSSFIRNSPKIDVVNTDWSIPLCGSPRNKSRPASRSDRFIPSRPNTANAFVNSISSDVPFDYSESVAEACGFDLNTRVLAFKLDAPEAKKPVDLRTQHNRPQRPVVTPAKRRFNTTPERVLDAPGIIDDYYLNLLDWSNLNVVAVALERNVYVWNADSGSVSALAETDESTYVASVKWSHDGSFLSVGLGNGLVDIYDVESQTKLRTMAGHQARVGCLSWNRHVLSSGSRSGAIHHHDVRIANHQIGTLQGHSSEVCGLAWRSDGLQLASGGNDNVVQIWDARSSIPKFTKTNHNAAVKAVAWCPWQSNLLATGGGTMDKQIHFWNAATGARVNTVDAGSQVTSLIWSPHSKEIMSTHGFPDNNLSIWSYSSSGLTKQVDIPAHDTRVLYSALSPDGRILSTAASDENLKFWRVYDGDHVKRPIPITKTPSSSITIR
UniProt O59767: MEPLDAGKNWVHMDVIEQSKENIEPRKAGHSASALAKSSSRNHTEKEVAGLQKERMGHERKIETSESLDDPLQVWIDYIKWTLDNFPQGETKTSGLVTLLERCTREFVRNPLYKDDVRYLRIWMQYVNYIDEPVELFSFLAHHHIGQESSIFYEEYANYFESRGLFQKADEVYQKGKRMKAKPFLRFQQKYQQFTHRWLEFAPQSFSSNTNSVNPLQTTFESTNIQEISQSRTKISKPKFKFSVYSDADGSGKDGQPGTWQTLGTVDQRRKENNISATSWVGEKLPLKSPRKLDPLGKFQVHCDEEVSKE

The target in assay [2] is Cdc20^Slp1 with an internally-engineered 3xFLAG tag (S. pombe) (UniProt P78972). Nature of the assay: co-IP; Cdc20^Slp1-3xFLAG immunoprecipitated with anti-FLAG (M2) antibodies on Dynabeads from native extracts of cdc25-22 cells released from G2 into mitosis at 25°C, time points every 15 min; blots for Mad3p (anti-GFP) and Mad2p; strains wild type, mad3-C9A, mad2-S92A, mad3-C9A mad2-S92A, mps1-kd.

These are yes or no findings as the source states them, for the method shown. In cells and extracts the contact can be indirect. Binding can be weak; no strength is given.

On to “Mad3-C9A tagged with GFP (from UniProt O59767)”, for which the binding entry in assay [1] and in assay [2] was “binds” each time. As for “Mad3-KEN1 mutant tagged with GFP (from UniProt O59767)”, the binding entry in assay [1] is “no binding”. With “Mad3-KEN2 mutant tagged with GFP (from UniProt O59767)”, the binding result in assay [1] was “binds”.

For the origin of these results see article PMC4755545.
